{"source": "PubChem BioAssay AID1259405 (NCATS, 2018)", "purpose": "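Silenced genes that increase secreted GFP made by CHO cells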 (primary screen)", "system": "Chinese hamster CHO-K1 ovary cells with stable secreted eGFP expression", "knock-down reagent": "single siRNA against mouse genes, 0.8 pmol siRNA per well (2 µl of 400 nM stock)", "duration": "3 days", "read-out": "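Percent of the per-plate non-targeting control median for intracellular GFP per well by laser scanning cytometry and for cell viability by ATP luminescence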", "reading the numbers": "GFP, % of control: higher = more GFP per well, higher productivity; viability (ATP), % of control: higher = more viable cells (more ATP)", "active means": "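Called active when intracellular GFP, relative to negative control, is at or above 120%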", "note": "Shown is a random part of about 50,000 deposited reagents. About 4,000 of all reagents (8%) count as active. 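Mouse siRNA library applied to hamster cells; one well for each siRNA.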 Entries without a mark were called inactive. No sequences are given here."}
{"gene": "Ccr1 (GeneID 12768)", "PubChem SID": "SID363571213", "GFP, % of control": 83.3, "viability (ATP), % of control": 70.8}
{"gene": "Ccr1 (GeneID 12768)", "PubChem SID": "SID363571565", "GFP, % of control": 85.1, "viability (ATP), % of control": 62.3}
{"gene": "Ccr1 (GeneID 12768)", "PubChem SID": "SID363571917", "GFP, % of control": 98.2, "viability (ATP), % of control": 94.1}
{"gene": "Hsdl2 (GeneID 72479)", "PubChem SID": "SID363575094", "GFP, % of control": 56.2, "viability (ATP), % of control": 59.3}
{"gene": "Hsdl2 (GeneID 72479)", "PubChem SID": "SID363580726", "GFP, % of control": 55, "viability (ATP), % of control": 55.2}
{"gene": "Hsdl2 (GeneID 72479)", "PubChem SID": "SID363582838", "GFP, % of control": 91.3, "viability (ATP), % of control": 84.9}

Single entries from the list:
Entry for Hsdl2 (GeneID 72479) [SID363582838] in “GFP, % of control”: 91.3
Result of Ccr1 (GeneID 12768) [SID363571917] under “viability (ATP), % of control”: 94.1
Ccr1 (GeneID 12768) [SID363571565], viability (ATP), % of control = 62.3

Additional results follow.
{"gene": "Fos (GeneID 14281)", "PubChem SID": "SID363555450", "GFP, % of control": "129 (active)", "viability (ATP), % of control": 67.7}
{"gene": "Fos (GeneID 14281)", "PubChem SID": "SID363564111", "GFP, % of control": 69.5, "viability (ATP), % of control": 92.5}
{"gene": "Fos (GeneID 14281)", "PubChem SID": "SID363587657", "GFP, % of control": 104, "viability (ATP), % of control": 80.3}
{"gene": "Eng (GeneID 13805)", "PubChem SID": "SID363568842", "GFP, % of control": "132 (active)", "viability (ATP), % of control": 126}
{"gene": "Eng (GeneID 13805)", "PubChem SID": "SID363576234", "GFP, % of control": 72.3, "viability (ATP), % of control": 69.5}
{"gene": "Eng (GeneID 13805)", "PubChem SID": "SID363579050", "GFP, % of control": 31.5, "viability (ATP), % of control": 22.1}
{"gene": "Tm2d1 (GeneID 94043)", "PubChem SID": "SID363546590", "GFP, % of control": 69.2, "viability (ATP), % of control": 64.4}
{"gene": "Tm2d1 (GeneID 94043)", "PubChem SID": "SID363548346", "GFP, % of control": 57.5, "viability (ATP), % of control": 60}
{"gene": "Tm2d1 (GeneID 94043)", "PubChem SID": "SID363560524", "GFP, % of control": "121 (active)", "viability (ATP), % of control": 86.6}
{"gene": "Fgf2 (GeneID 14173)", "PubChem SID": "SID363572668", "GFP, % of control": 92.5, "viability (ATP), % of control": 65.8}
{"gene": "Fgf2 (GeneID 14173)", "PubChem SID": "SID363577948", "GFP, % of control": 118, "viability (ATP), % of control": 72.1}
{"gene": "Fgf2 (GeneID 14173)", "PubChem SID": "SID363582172", "GFP, % of control": 95.9, "viability (ATP), % of control": 107}
